This note sets out measurements from patent US20120180150A1 (published 2012).

Sequences of proteins named here, by UniProt entry; tags and fusion partners are left off. A change or cut given only in a name is not applied to a line headed by its entry.
UniProt P11881: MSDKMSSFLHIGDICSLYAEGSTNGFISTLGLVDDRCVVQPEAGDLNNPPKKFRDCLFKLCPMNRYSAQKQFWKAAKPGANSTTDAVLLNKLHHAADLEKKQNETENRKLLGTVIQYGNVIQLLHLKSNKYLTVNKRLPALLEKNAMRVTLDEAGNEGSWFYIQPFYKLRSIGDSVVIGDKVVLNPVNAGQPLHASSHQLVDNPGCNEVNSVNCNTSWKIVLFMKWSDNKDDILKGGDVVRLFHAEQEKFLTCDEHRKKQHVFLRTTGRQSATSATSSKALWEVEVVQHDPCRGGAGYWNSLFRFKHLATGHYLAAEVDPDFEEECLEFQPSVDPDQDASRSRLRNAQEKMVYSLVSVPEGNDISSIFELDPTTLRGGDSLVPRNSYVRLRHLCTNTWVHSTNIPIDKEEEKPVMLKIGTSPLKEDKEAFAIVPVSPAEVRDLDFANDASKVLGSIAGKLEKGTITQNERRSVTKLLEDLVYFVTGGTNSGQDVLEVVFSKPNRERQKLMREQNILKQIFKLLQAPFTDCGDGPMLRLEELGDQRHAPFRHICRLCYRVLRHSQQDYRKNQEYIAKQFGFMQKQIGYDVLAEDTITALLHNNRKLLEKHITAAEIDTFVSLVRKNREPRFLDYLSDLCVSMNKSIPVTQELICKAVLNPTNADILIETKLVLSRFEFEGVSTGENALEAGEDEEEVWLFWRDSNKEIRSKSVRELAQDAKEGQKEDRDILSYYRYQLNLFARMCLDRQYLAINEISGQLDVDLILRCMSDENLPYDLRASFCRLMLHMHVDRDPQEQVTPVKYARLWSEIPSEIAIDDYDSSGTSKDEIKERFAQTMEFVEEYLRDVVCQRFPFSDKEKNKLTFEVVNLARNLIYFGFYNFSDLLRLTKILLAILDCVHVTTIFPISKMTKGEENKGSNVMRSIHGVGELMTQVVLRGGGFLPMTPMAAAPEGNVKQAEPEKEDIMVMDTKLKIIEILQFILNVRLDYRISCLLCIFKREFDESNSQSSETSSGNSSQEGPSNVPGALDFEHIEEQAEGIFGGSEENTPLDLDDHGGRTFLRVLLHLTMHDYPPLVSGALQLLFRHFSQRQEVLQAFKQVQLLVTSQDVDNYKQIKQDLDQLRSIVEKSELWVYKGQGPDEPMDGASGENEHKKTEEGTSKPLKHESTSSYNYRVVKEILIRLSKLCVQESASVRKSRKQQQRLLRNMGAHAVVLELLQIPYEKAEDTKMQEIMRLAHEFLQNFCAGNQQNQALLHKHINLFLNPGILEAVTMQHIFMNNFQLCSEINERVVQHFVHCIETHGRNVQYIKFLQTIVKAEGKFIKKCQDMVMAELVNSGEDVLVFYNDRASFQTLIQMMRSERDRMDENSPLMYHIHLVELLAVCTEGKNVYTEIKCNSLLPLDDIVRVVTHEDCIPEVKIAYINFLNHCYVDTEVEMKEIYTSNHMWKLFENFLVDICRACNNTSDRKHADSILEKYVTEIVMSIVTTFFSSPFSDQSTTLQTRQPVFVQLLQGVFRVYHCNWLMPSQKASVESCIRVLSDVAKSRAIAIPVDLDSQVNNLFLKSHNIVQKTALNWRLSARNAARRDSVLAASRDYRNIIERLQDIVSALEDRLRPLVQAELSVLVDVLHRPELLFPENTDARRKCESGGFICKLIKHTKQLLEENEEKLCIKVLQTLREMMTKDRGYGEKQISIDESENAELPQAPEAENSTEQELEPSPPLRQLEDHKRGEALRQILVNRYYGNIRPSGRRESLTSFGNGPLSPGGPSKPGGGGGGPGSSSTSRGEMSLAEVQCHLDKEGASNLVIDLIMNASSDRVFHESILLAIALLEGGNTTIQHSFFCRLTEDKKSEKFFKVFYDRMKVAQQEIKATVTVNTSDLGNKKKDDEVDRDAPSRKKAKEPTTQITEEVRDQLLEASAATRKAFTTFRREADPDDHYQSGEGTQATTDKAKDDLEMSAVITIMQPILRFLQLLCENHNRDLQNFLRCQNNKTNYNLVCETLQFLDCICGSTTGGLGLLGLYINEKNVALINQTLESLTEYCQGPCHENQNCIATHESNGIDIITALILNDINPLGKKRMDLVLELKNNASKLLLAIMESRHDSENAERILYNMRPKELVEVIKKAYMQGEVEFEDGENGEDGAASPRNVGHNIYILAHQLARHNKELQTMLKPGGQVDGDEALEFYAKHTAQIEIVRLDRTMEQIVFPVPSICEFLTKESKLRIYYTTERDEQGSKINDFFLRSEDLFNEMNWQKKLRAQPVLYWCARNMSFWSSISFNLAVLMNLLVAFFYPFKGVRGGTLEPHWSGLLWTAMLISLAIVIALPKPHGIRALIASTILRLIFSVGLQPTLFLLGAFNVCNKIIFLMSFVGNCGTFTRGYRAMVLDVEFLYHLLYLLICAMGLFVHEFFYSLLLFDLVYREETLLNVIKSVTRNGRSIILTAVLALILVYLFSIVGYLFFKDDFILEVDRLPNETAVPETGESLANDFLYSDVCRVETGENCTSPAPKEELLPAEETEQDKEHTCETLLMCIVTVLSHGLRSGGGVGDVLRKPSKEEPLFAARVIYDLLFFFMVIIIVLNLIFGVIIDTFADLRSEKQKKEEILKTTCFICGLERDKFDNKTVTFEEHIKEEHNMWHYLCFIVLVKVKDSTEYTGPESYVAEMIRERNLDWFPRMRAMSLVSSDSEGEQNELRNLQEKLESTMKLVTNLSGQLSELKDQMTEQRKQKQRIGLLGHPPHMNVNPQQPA
UniProt Q922B9: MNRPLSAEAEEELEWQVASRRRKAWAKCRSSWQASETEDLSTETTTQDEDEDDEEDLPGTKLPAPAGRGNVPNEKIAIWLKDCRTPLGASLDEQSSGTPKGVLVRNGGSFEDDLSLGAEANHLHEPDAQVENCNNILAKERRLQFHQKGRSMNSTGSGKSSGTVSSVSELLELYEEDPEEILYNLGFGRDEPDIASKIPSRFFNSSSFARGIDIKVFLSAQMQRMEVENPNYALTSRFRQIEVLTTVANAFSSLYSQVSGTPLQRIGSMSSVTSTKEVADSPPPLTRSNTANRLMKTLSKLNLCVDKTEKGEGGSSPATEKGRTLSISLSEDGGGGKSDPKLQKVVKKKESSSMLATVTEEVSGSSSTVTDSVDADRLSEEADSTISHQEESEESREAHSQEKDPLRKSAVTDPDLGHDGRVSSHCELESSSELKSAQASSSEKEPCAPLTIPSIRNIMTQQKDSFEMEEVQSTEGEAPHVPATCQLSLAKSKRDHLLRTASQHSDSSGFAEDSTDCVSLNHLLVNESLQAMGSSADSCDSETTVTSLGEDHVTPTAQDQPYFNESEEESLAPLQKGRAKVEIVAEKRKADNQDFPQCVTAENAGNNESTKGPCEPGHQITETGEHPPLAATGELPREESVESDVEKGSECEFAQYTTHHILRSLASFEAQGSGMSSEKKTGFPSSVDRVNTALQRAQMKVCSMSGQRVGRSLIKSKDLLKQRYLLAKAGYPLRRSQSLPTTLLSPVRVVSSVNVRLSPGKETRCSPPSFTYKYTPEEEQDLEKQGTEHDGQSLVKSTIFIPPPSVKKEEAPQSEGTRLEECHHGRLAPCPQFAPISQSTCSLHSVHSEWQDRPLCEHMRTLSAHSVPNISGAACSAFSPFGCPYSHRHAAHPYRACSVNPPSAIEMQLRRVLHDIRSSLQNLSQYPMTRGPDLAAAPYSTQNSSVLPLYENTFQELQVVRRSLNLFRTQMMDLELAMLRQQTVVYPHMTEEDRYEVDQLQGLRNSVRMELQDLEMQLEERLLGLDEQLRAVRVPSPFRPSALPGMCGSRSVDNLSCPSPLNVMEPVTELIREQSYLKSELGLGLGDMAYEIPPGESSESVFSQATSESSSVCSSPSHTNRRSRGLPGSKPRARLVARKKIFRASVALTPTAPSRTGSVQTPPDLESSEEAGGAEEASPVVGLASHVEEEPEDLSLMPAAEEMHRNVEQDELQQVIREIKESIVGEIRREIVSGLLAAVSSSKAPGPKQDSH

Experiment [1] deals with endogenous IP3R1 protein of mouse tissue (mouse) (UniProt P11881). Nature of the experiment: immunoprecipitation from mouse tissue.
Experiment [2] has the same target. Briefly: immunoprecipitation with anti-KRAP antibody from mouse tissue extracts (liver, kidney, BAT, pancreas), Western blot for IP3R1. (In general: Immunoblotting shows a protein as a band on a membrane.)
In experiment [3] the target is mouse IP3R1 full length with C-terminal GFP (mouse) (UniProt P11881). Nature of the experiment: HA-matrix co-immunoprecipitation from HEK 293 cells, anti-GFP Western blot.
Experiment [4] concerns the target endogenous IP3R type 3 of HCT 116 cells (human) (UniProt Q14573). Nature of the experiment: HA-matrix co-immunoprecipitation from HCT 116 cells, anti-IP3R3 Western blot.
Experiment [5] deals with mouse IP3R1 full length with C-terminal GFP (mouse) (UniProt P11881). Nature of the experiment: co-localisation of KRAP-HA and IP3R1-GFP in HEK 293 cells by immunofluorescence, confocal microscopy.
The target of experiment [6] is endogenous IP3R1 protein of mouse tissue (mouse) (UniProt P11881). Nature of the experiment: anti-HA affinity matrix co-purification from liver of the KRAP transgenic mouse, Western blot with anti-IP3R antibody.

These are yes or no findings as the source states them, for the method shown. For some assays here: In cells and extracts the contact can be indirect. Some entries that bind do so weakly or less than the wild type.

“endogenous KRAP protein of mouse tissue (from UniProt Q922B9 1-1252)”: the binding entry in experiment [1] and in experiment [2] was “binds” throughout.

As for “mouse KRAP deletion mutant with the coiled-coil region knocked out (1-942) (from UniProt Q922B9 1-942)”, the binding result in experiment [3] was “binds”.

Regarding “mouse KRAP deletion mutant, amino acid residues 1-218, N-terminal HA tag (from UniProt Q922B9 1-218)”, the binding result in experiment [3] and in experiment [4] was “binds” each time.

As for “mouse KRAP protein, full length, with HA tag added to its C-terminus (from UniProt Q922B9 1-1252)”, the binding result in experiment [3], in experiment [5] and in experiment [6] was “binds” each time.
